Some entries share one result that the patent states for a list of compounds.
How the values were obtained:
[1] = molecular target: T1, iNOS enzyme (Homo sapiens, UniProt P35228); assay: Screen 1: recombinant human NO synthase inhibition, L-[3H]citrulline formation; type: biochemical; conditions: recombinant human iNOS expressed in E. coli; 3 μM [3H]arginine; 60 min pre-incubation with NADPH; read-out: IC50 against the iNOS enzyme
T1 construct: made in house; host or cells: E. coli (crude lysate)

[2] = molecular target: T2, human form of induced nitric oxide synthase (Homo sapiens, UniProt P35228); assay: Screen 2: nitrite accumulation in cytokine-induced DLD-1 cells (Griess); type: cell-based; conditions: DLD-1 cells induced with gamma-IFN, TNF-alpha, IL-6, IL-1-beta; 5 hours with test compounds; read-out: IC50, inhibition of nitrite accumulation
T2 construct: Nitric oxide synthase was induced in cells by addition of medium containing human recombinant gamma-IFN; endogenous in cells; host or cells: DLD-1 human colorectal carcinoma cells (ECACC 90102540), induced with cytokines

**Q.** With “S-[2-[(Methyl-2-pyridinyl)amino]propyl]-L-cysteine ethanoate [Example 4]” as the substance, how does the IC50 [1] read?
**A.** The IC50 was < 10 µM.

**Q.** And the IC50 [2]?
**A.** The IC50 was < 100 µM.
